In this assay the target is Dynein light chain type 1 (DYNLT1) (human (endogenous in iPSC-aCMs)) (UniProt P63172). Briefly: affinity purification with mass spectrometry; IP of endogenous DYNLT1 from iPSC-aCM lysate with anti-DYNLT1 antibody or control IgG, magnetic beads, SDS-PAGE, in-gel digestion, LC-MS/MS.

The chains behind the UniProt entries cited, without tags or fusion partners. Where a name states a change or a piece, a line headed by the entry shows the natural chain unless it says otherwise.
UniProt P63172: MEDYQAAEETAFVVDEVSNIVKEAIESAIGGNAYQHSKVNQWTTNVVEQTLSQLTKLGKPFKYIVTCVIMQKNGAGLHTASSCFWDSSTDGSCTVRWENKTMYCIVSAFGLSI
UniProt Q9UM00: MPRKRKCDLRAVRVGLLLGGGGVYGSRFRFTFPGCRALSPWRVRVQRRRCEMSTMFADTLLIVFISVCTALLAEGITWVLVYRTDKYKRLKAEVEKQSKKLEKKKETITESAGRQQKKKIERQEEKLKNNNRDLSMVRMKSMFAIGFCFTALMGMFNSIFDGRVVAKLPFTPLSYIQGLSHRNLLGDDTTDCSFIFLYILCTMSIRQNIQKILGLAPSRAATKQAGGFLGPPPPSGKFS

No constants are given. Whether binding was seen depends on the method and setting. In cells and extracts the contact can be indirect. A yes stands for co-enrichment or nearness to the bait. Other partners may have been found.

For the substance TMCO1 (from UniProt Q9UM00), the binding result is recorded as “binds”.
